Test results as given in the supplement of paper PMC12823440, “Inhibitors supercharge kinase turnover through native proteolytic circuits” (Nature, 2025).
Counter-ions that a name gives are not always drawn. The list shows a part of the results. The calls rarely recur for the same compound in another form.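 Kinases, fused to nanoluciferase, were expressed in K562 cells; luminescence was measured every 4 h from 2 to 18 h as percent of control (DMSO = 100%, positive control = 0%). A time point is decreased if signal falls significantly (2 sigma). Hits were called by the authors by a rule that is not shown; the count of time points alone does not decide it.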

Protein sequences, listed by entry. Tags and fused reporters are not part of them. Lines headed by an entry give the natural chain unless they say otherwise; changes in a name come on top.
UniProt P53350, whole entry: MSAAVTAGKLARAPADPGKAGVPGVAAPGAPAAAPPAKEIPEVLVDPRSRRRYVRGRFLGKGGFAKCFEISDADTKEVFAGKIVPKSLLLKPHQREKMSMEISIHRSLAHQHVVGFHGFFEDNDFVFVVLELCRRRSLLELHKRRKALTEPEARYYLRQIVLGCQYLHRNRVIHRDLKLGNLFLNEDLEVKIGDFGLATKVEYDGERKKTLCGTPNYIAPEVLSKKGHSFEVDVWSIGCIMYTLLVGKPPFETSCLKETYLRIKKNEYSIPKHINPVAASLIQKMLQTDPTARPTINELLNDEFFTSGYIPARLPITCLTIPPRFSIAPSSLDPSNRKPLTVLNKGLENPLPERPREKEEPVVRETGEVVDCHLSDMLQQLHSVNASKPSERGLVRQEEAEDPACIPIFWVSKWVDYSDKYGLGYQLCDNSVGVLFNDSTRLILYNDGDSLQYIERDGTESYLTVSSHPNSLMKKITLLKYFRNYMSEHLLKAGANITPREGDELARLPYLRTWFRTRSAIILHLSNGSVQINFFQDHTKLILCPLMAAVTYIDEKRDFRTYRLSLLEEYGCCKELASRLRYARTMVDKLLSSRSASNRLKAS
UniProt Q13131: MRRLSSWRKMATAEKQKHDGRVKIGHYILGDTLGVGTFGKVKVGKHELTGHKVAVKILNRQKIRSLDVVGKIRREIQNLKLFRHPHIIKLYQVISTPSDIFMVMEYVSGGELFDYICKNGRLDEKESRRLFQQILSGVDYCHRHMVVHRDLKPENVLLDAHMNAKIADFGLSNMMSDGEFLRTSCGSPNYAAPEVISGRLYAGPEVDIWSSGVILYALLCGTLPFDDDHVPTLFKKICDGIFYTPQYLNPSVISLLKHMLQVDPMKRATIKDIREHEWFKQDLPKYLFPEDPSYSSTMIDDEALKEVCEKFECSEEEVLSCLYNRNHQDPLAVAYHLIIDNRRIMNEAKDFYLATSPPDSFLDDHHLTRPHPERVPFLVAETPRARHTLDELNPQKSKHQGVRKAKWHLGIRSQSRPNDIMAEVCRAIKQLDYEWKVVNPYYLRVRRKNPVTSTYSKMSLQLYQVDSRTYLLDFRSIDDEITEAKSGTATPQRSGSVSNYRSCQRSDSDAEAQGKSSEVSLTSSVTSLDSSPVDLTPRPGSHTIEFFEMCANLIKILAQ
UniProt Q05397, whole entry, looked up: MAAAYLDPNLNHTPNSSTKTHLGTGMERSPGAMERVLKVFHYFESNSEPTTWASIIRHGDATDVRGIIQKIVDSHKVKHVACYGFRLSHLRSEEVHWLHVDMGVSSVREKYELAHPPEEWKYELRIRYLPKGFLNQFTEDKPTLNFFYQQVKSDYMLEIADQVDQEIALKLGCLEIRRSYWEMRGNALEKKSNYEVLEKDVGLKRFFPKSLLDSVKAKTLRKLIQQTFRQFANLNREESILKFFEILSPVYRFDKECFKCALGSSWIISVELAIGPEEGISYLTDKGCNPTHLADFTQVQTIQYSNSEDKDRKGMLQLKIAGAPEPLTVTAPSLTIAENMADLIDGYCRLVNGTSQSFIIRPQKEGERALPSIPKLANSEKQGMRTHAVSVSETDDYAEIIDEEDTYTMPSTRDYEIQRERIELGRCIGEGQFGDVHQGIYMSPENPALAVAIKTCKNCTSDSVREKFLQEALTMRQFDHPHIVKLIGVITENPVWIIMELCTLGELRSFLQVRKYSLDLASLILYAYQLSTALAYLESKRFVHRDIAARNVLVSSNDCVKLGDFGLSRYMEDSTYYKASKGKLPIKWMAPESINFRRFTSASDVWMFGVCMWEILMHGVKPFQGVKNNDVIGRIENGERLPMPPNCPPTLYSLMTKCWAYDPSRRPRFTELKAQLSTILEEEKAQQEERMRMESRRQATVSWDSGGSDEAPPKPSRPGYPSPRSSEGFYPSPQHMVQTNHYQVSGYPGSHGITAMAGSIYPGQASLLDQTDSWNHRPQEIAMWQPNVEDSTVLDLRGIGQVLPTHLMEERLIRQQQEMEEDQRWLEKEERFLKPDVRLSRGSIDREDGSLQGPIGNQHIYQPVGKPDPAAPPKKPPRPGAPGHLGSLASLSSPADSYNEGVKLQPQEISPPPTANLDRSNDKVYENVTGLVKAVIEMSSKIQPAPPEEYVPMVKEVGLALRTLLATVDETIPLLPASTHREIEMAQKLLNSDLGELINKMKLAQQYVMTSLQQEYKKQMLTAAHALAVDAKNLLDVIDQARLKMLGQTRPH
UniProt Q14289, whole entry, looked up: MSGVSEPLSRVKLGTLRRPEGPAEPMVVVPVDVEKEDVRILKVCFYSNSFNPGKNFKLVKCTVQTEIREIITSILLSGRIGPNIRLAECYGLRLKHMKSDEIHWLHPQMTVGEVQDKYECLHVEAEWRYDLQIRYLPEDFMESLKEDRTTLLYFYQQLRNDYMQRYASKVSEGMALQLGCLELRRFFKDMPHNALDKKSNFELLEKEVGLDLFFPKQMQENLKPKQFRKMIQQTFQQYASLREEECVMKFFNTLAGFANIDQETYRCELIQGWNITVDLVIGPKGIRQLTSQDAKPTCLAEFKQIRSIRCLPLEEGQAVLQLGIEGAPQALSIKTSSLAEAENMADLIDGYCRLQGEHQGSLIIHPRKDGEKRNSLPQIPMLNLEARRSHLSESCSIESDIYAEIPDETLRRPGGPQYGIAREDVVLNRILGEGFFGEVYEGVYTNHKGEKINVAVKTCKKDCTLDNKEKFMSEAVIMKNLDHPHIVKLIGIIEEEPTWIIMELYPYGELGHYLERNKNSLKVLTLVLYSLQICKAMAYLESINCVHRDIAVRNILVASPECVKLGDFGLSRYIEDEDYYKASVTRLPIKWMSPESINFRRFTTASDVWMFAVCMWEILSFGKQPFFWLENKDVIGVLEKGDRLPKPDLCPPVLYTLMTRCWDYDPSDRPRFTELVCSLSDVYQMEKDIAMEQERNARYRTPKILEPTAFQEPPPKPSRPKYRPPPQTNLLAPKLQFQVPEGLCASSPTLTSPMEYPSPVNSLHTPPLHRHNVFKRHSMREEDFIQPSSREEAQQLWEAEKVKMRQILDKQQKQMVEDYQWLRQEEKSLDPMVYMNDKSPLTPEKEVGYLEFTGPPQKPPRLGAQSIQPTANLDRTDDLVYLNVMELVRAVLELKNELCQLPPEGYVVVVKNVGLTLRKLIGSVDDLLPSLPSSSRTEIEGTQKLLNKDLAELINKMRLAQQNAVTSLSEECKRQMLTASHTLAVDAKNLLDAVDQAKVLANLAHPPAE
UniProt P07949, whole entry, looked up: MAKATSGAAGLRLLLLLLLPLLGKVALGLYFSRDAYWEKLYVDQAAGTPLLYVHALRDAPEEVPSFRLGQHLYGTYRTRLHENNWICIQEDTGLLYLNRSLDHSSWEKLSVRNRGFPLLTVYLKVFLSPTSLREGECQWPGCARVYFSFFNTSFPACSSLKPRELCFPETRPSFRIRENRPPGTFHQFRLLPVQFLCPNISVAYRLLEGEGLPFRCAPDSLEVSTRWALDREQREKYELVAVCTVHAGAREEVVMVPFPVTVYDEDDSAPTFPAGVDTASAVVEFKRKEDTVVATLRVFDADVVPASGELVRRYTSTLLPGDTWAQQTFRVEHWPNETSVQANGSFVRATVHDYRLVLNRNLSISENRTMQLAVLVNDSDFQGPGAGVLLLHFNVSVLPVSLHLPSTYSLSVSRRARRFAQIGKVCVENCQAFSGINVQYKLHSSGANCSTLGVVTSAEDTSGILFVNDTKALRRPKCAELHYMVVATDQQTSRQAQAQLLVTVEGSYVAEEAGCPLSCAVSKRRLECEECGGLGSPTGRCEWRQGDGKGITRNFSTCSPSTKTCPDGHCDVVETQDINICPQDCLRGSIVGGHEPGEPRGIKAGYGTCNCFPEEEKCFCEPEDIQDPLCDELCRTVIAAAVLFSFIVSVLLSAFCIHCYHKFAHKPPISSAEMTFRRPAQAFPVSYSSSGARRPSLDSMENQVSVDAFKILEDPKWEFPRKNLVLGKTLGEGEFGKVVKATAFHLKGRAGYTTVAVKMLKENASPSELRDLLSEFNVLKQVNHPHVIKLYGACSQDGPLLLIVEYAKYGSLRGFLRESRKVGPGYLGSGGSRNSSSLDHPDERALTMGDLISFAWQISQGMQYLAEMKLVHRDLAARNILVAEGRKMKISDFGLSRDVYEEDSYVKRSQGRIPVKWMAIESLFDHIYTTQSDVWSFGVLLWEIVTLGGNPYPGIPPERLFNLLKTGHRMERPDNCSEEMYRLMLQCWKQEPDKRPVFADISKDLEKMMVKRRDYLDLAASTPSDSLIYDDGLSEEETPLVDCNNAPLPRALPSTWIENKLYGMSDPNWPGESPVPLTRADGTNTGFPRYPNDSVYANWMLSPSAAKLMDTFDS
UniProt P07949, whole entry M918T, looked up: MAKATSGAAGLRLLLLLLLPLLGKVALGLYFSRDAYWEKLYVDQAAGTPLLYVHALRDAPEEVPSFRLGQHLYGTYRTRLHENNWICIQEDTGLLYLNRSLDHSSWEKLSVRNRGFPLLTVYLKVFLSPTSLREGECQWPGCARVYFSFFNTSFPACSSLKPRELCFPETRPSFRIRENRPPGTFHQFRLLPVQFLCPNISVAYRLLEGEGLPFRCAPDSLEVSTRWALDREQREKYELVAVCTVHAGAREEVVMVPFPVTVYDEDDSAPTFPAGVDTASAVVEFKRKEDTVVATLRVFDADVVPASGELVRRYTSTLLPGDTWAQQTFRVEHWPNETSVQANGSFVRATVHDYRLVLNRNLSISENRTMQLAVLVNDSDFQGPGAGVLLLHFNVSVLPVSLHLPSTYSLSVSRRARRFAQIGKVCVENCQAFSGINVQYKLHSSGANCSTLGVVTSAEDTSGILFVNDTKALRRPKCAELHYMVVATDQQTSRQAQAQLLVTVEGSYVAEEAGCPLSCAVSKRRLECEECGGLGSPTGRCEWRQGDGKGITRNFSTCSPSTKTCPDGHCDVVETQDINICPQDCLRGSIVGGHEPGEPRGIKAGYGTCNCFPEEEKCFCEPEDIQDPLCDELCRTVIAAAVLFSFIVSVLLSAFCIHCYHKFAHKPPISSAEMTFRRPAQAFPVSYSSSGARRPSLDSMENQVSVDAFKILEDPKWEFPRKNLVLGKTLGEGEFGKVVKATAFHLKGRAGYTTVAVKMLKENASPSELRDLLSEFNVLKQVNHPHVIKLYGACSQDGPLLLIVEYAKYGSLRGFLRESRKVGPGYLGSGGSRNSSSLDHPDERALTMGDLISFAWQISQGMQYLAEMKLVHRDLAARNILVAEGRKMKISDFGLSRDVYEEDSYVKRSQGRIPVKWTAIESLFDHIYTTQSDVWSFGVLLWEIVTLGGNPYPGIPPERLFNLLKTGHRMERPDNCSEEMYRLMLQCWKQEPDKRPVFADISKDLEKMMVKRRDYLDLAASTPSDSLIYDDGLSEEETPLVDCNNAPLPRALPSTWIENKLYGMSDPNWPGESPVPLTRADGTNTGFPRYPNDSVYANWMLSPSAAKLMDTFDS
UniProt Q9BRS2: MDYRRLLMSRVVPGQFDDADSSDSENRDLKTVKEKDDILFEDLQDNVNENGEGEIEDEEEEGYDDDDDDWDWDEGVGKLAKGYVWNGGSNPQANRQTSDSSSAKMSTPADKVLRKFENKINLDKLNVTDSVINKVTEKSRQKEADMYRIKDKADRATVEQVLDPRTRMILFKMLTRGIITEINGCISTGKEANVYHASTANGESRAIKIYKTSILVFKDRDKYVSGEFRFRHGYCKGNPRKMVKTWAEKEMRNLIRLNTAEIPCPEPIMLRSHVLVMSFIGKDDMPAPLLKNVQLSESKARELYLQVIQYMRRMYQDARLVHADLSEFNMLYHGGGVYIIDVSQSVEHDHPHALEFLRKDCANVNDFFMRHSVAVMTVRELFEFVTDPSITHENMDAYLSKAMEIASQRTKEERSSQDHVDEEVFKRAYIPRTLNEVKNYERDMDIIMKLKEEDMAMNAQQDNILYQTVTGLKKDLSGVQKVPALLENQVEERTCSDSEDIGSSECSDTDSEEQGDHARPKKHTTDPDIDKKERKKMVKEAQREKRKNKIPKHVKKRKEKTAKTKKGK
UniProt Q9Y6E0: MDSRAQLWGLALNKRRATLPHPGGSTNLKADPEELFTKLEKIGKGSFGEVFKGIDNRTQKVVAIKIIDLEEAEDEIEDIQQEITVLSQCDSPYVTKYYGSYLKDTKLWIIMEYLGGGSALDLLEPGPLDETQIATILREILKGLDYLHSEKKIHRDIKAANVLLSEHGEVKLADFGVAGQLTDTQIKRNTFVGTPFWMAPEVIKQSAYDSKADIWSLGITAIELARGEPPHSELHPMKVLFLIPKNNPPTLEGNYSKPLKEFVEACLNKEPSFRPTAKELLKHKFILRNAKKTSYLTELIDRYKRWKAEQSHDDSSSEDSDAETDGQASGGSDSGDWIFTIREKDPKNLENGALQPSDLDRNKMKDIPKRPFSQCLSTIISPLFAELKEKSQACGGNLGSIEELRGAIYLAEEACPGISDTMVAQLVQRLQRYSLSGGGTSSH

Experiments:
Assay in all cases: kinase-Nluc reporter destabilization hit call (1 = scored as downregulated) (binary); higher = compound decreases kinase abundance
Settings in all cases: K562; 2-18 h
PDPK1 = PDPK1 (UniProt O15530)
PIK4CA = PIK4CA (UniProt P42356)
PIK4CB = PIK4CB (UniProt Q9UBF8)
PLK1 = PLK1 (UniProt P53350)
PRKAA1 = PRKAA1 (UniProt Q13131)
PRKCA = PRKCA (UniProt P17252)
PTK2 = PTK2 (UniProt Q05397)
PTK2B = PTK2B (UniProt Q14289)
RAF1 = RAF1 (UniProt P04049)
[1] = target: RAF1_S257L (clone: RAF1_mut) (UniProt P04049)
RET = RET (UniProt P07949)
[2] = target: RET_M918T (clone: RET_mut) (UniProt P07949)
RIOK1 = RIOK1 (UniProt Q9BRS2)
RIPK1 = RIPK1 (UniProt Q13546)
RIPK2 = RIPK2 (UniProt O43353)
ROR2 = ROR2 (UniProt Q01974)
RPS6KA1 = RPS6KA1 (UniProt Q15418)
SPHK1 = SPHK1 (UniProt Q9NYA1)
SRC = SRC (UniProt P12931)
STK24 = STK24 (UniProt Q9Y6E0)

Measured: kinase-Nluc reporter destabilization hit call

COc1ccc2c(c1OC)OC1c3ccc(O)cc3OCC21 (stereo not given) [Methylnissolin] (10 µM)
inactive: PDPK1 = 0 | PIK4CA 0 | PIK4CB 0 | PLK1 = 0 | PRKAA1 = 0 | PRKCA 0 | PTK2 = 0 | PTK2B 0 | RAF1 = 0 | [1] 0 | RET 0 | [2] 0 | RIOK1 = 0 | RIPK1 = 0 | RIPK2 = 0 | ROR2 = 0 | RPS6KA1 = 0 | SPHK1 = 0 | SRC 0 | STK24 = 0

CC(C)C[C@H](NC(=O)[C@H](CCCCN)NC(=O)[C@H](CO)NC(=O)[C@@H](N)CC(C)C)C(N)=O [LSKL, Inhibitor of Thrombospondin (TSP-1) (TFA)] (10 µM)
inactive: PDPK1 = 0 | PIK4CA 0 | PIK4CB 0 | PLK1 = 0 | PRKAA1 = 0 | PRKCA 0 | PTK2 = 0 | PTK2B 0 | RAF1 = 0 | [1] 0 | RET 0 | [2] 0 | RIOK1 = 0 | RIPK1 = 0 | RIPK2 = 0 | ROR2 = 0 | RPS6KA1 = 0 | SPHK1 = 0 | SRC 0 | STK24 = 0

CC[C@@H]1C(=O)N(C)c2cnc(Nc3ccc(C(=O)N[C@H]4CC[C@H](N5CCN(CC6CC6)CC5)CC4)cc3OC)nc2N1C(C)C [Volasertib] (2.5 µM)
inactive: PDPK1 = 0 | PIK4CA 0 | PIK4CB 0 | PLK1 = 0 | PRKAA1 = 0 | PRKCA 0 | PTK2 = 0 | PTK2B 0 | RAF1 = 0 | [1] 0 | RET 0 | [2] 0 | RIOK1 = 0 | RIPK1 = 0 | RIPK2 = 0 | ROR2 = 0 | RPS6KA1 = 0 | SPHK1 = 0 | SRC 0 | STK24 = 0

C=CC(=O)Nc1cccc(-n2c(=O)cc(C)c3cnc(Nc4ccc(OCCN(C)C)cc4OC)nc32)c1 (10 µM)
inactive: PDPK1 = 0 | PIK4CA 0 | PIK4CB 0 | PLK1 = 0 | PRKAA1 = 0 | PRKCA 0 | PTK2 = 0 | PTK2B 0 | RAF1 = 0 | [1] 0 | RET 0 | [2] 0 | RIOK1 = 0 | RIPK1 = 0 | RIPK2 = 0 | ROR2 = 0 | RPS6KA1 = 0 | SPHK1 = 0 | SRC 0 | STK24 = 0

Pulled one by one from the entries so far, 2 records:
C=CC(=O)Nc1cccc(-n2c(=O)cc(C)c3cnc(Nc4ccc(OCCN(C)C)cc4OC)nc32)c1 (10 µM)
inactive: PDPK1 = 0 | PIK4CA 0 | PIK4CB 0 | PLK1 = 0 | PRKAA1 = 0 | PRKCA 0 | PTK2 = 0 | PTK2B 0 | RAF1 = 0 | [1] 0 | RET 0 | [2] 0 | RIOK1 = 0 | RIPK1 = 0 | RIPK2 = 0 | ROR2 = 0 | RPS6KA1 = 0 | SPHK1 = 0 | SRC 0 | STK24 = 0

CC[C@@H]1C(=O)N(C)c2cnc(Nc3ccc(C(=O)N[C@H]4CC[C@H](N5CCN(CC6CC6)CC5)CC4)cc3OC)nc2N1C(C)C [Volasertib] (2.5 µM)
inactive: PDPK1 = 0 | PIK4CA 0 | PIK4CB 0 | PLK1 = 0 | PRKAA1 = 0 | PRKCA 0 | PTK2 = 0 | PTK2B 0 | RAF1 = 0 | [1] 0 | RET 0 | [2] 0 | RIOK1 = 0 | RIPK1 = 0 | RIPK2 = 0 | ROR2 = 0 | RPS6KA1 = 0 | SPHK1 = 0 | SRC 0 | STK24 = 0

Further records follow.

CC(=O)NCCc1c[nH]c2ccc(O)cc12 [N-Acetyl-5-hydroxytryptamine] (10 µM)
inactive: PDPK1 = 0 | PIK4CA 0 | PIK4CB 0 | PLK1 = 0 | PRKAA1 = 0 | PRKCA 0 | PTK2 = 0 | PTK2B 0 | RAF1 = 0 | [1] 0 | RET 0 | [2] 0 | RIOK1 = 0 | RIPK1 = 0 | RIPK2 = 0 | ROR2 = 0 | RPS6KA1 = 0 | SPHK1 = 0 | SRC 0 | STK24 = 0

CCCCNC(=N)NC(=N)N [Buformin (hydrochloride)] (2.5 µM)
inactive: PDPK1 = 0 | PIK4CA 0 | PIK4CB 0 | PLK1 = 0 | PRKAA1 = 0 | PRKCA 0 | PTK2 = 0 | PTK2B 0 | RAF1 = 0 | [1] 0 | RET 0 | [2] 0 | RIOK1 = 0 | RIPK1 = 0 | RIPK2 = 0 | ROR2 = 0 | RPS6KA1 = 0 | SPHK1 = 0 | SRC 0 | STK24 = 0

CC(C)N(C)c1nc2cc(C(=O)O)ccc2nc1-c1ccc(F)cc1 (10 µM)
inactive: PDPK1 = 0 | PIK4CA 0 | PIK4CB 0 | PLK1 = 0 | PRKAA1 = 0 | PRKCA 0 | PTK2 = 0 | PTK2B 0 | RAF1 = 0 | [1] 0 | RET 0 | [2] 0 | RIOK1 = 0 | RIPK1 = 0 | RIPK2 = 0 | ROR2 = 0 | RPS6KA1 = 0 | SPHK1 = 0 | SRC 0 | STK24 = 0

Oc1ccccc1C(=S)N1CCCC1 (10 µM)
inactive: PDPK1 = 0 | PIK4CA 0 | PIK4CB 0 | PLK1 = 0 | PRKAA1 = 0 | PRKCA 0 | PTK2 = 0 | PTK2B 0 | RAF1 = 0 | [1] 0 | RET 0 | [2] 0 | RIOK1 = 0 | RIPK1 = 0 | RIPK2 = 0 | ROR2 = 0 | RPS6KA1 = 0 | SPHK1 = 0 | SRC 0 | STK24 = 0

Nc1cc(C(F)F)c(-c2nc(N3C4CCC3COC4)nc(N3C4CCC3COC4)n2)cn1 (2.5 µM)
inactive: PDPK1 = 0 | PIK4CA 0 | PIK4CB 0 | PLK1 = 0 | PRKAA1 = 0 | PRKCA 0 | PTK2 = 0 | PTK2B 0 | RAF1 = 0 | [1] 0 | RET 0 | [2] 0 | RIOK1 = 0 | RIPK1 = 0 | RIPK2 = 0 | ROR2 = 0 | RPS6KA1 = 0 | SPHK1 = 0 | SRC 0 | STK24 = 0

O=C1NC(=O)/C(=C/c2ccc(-c3ccc(F)cc3O)o2)S1 (10 µM)
inactive: PDPK1 = 0 | PIK4CA 0 | PIK4CB 0 | PLK1 = 0 | PRKAA1 = 0 | PRKCA 0 | PTK2 = 0 | PTK2B 0 | RAF1 = 0 | [1] 0 | RET 0 | [2] 0 | RIOK1 = 0 | RIPK1 = 0 | RIPK2 = 0 | ROR2 = 0 | RPS6KA1 = 0 | SPHK1 = 0 | SRC 0 | STK24 = 0

COc1nc(-c2cccc3c2OCCO3)ccc1Nc1ccc(CN(C)C)cc1 [RAS inhibitor Abd-7] (10 µM)
inactive: PDPK1 = 0 | PIK4CA 0 | PIK4CB 0 | PLK1 = 0 | PRKAA1 = 0 | PRKCA 0 | PTK2 = 0 | PTK2B 0 | RAF1 = 0 | [1] 0 | RET 0 | [2] 0 | RIOK1 = 0 | RIPK1 = 0 | RIPK2 = 0 | ROR2 = 0 | RPS6KA1 = 0 | SPHK1 = 0 | SRC 0 | STK24 = 0

CCN(C)C(=O)c1ccc2c(C(=Nc3ccc(CN4CCCCC4)cc3)c3ccccc3)c(O)[nH]c2c1 (2.5 µM)
inactive: PDPK1 = 0 | PIK4CA 0 | PIK4CB 0 | PLK1 = 0 | PRKAA1 = 0 | PRKCA 0 | PTK2 = 0 | PTK2B 0 | RAF1 = 0 | [1] 0 | RET 0 | [2] 0 | RIOK1 = 0 | RIPK1 = 0 | RIPK2 = 0 | ROR2 = 0 | RPS6KA1 = 0 | SPHK1 = 0 | SRC 0 | STK24 = 0

CN1C(=O)NC(Cc2c[nH]c3c(Cl)cccc23)C1=O (racemic) [Necrostatin 2 (racemate)] (10 µM)
inactive: PDPK1 = 0 | PIK4CA 0 | PIK4CB 0 | PLK1 = 0 | PRKAA1 = 0 | PRKCA 0 | PTK2 = 0 | PTK2B 0 | RAF1 = 0 | [1] 0 | RET 0 | [2] 0 | RIOK1 = 0 | RIPK1 = 0 | RIPK2 = 0 | ROR2 = 0 | RPS6KA1 = 0 | SPHK1 = 0 | SRC 0 | STK24 = 0

COc1ccc2c(=O)c(-c3ccccc3)coc2c1 [7-Methoxyisoflavone] (10 µM)
inactive: PDPK1 = 0 | PIK4CA 0 | PIK4CB 0 | PLK1 = 0 | PRKAA1 = 0 | PRKCA 0 | PTK2 = 0 | PTK2B 0 | RAF1 = 0 | [1] 0 | RET 0 | [2] 0 | RIOK1 = 0 | RIPK1 = 0 | RIPK2 = 0 | ROR2 = 0 | RPS6KA1 = 0 | SPHK1 = 0 | SRC 0 | STK24 = 0

CC(C)(C)c1cc(C(c2cc3c(cc2O)OCO3)N2CCOCC2)cc(C(C)(C)C)c1O (stereo not given) (2.5 µM)
inactive: PDPK1 = 0 | PIK4CA 0 | PIK4CB 0 | PLK1 = 0 | PRKAA1 = 0 | PRKCA 0 | PTK2 = 0 | PTK2B 0 | RAF1 = 0 | [1] 0 | RET 0 | [2] 0 | RIOK1 = 0 | RIPK1 = 0 | RIPK2 = 0 | ROR2 = 0 | RPS6KA1 = 0 | SPHK1 = 0 | SRC 0 | STK24 = 0

COc1ccc(CN2C3CC2CN(c2ccc(-c4cc(OCC(C)(C)O)cn5ncc(C#N)c45)cn2)C3)cn1 [Selpercatinib] (10 µM)
inactive: PDPK1 = 0 | PIK4CA 0 | PIK4CB 0 | PLK1 = 0 | PRKAA1 = 0 | PRKCA 0 | PTK2 = 0 | PTK2B 0 | RAF1 = 0 | [1] 0 | RET 0 | [2] 0 | RIOK1 = 0 | RIPK1 = 0 | RIPK2 = 0 | ROR2 = 0 | RPS6KA1 = 0 | SPHK1 = 0 | SRC 0 | STK24 = 0

CC(C)c1cc(/C=C(\C#N)C(N)=O)cc(C(C)C)c1O (10 µM)
inactive: PDPK1 = 0 | PIK4CA 0 | PIK4CB 0 | PLK1 = 0 | PRKAA1 = 0 | PRKCA 0 | PTK2 = 0 | PTK2B 0 | RAF1 = 0 | [1] 0 | RET 0 | [2] 0 | RIOK1 = 0 | RIPK1 = 0 | RIPK2 = 0 | ROR2 = 0 | RPS6KA1 = 0 | SPHK1 = 0 | SRC 0 | STK24 = 0
